Primary screen of a compound library

Amino acid sequences for entries named in this document (tags omitted).
UniProt E9BF75, entry or part of it: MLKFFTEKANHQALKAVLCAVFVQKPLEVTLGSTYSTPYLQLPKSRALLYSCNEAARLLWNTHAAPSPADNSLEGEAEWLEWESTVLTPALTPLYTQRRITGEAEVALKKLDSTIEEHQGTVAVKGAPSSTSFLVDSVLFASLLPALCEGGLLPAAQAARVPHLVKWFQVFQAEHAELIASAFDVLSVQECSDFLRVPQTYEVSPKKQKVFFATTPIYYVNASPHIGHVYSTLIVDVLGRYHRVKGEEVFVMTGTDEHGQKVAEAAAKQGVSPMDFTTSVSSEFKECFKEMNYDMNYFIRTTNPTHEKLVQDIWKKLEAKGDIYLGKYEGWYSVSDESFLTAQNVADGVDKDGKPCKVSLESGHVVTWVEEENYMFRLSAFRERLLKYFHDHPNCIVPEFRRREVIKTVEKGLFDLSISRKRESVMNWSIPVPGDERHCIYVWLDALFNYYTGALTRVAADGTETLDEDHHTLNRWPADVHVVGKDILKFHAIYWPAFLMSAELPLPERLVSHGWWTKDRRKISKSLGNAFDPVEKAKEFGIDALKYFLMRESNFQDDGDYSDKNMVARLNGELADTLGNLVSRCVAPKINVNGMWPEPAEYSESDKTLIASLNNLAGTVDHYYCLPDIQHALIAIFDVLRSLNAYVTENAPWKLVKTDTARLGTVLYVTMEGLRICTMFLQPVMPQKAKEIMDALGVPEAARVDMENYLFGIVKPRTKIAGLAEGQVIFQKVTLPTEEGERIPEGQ

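Primary screen of methionyl-tRNA synthetase; the read-out is not stated. Target: Methionyl-tRNA synthetase (putative), Leishmania donovani (UniProt E9BF75). The test concentration is not given. Values are per cent inhibition. About 68,000 compounds were tested under these conditions; 0.035% (about 24) showed 50% or more at least once.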

All values are in %. The controls that fix the scale are not given in the record; negative values are as filed. Compounds were drawn at random from those tested, without regard to their results.

Compound	Inhibition
Cc1ccc(C(=O)NCCS(C)(=O)=O)c(=O)[nH]1	12.38
O=C1COC2(CCN(c3ccccn3)CC2)CN1	14.6
CC(C)CNC(=O)N1CCC2(CCCO2)C1 (stereo unspecified)	17.79
O=C(c1ccco1)N1CCOCC2(C1)CN(c1cccnc1)C(=O)CO2 (stereo unspecified)	5.205
CCCc1ncc(C(=O)c2ccc(OC)cc2)n1C	5.263
COc1c(CNC2CCc3ccccc32)c(C)nn1C (stereo unspecified)	15.85
O=C([C@@H](O)Cc1ccccc1)N1CCCn2cncc2C1	-3.069
Cn1cc(CN2C[C@@H]3COC[C@]3(C(=O)N3CCCO3)C2)cn1	16.38
Cc1nc(-n2nc(C3CC3)cc2NC(=O)C(C)C)[nH]c(=O)c1C	12.54
CC(NC(=O)CN(C)C(C)C)c1ccc(Oc2cccnc2)c(F)c1 (stereo unspecified)	18.59
Cc1ccc(S(=O)(=O)CCC(=O)NCc2nnc3n2CCC3)cc1	9.561
CC(C)(C)c1cn2nc(N3CCCCC3Cn3cncn3)sc2n1 (stereo unspecified)	-0.5222
Cc1nc(N)cc(N2CCCC(COc3cccc(F)c3)C2)n1 (stereo unspecified)	18.49
COc1c(CNCc2ccc(N3CCOCC3)cc2)c(C)nn1C	11.17
FC(F)(F)Cn1ccnc1CNCC1CCCN1c1cccnn1 (stereo unspecified)	10.84
Cc1cccc(OCc2ccc(C(=O)N3N=CCC3(O)C(F)(F)F)o2)c1 (stereo unspecified)	9.353
CN(Cc1cncnc1)[C@@H]1CN(Cc2ccco2)C[C@@H]2CCCO[C@@H]21	11.11
O=C(CCc1cc(O)no1)N1CCC(Cc2ccc(F)cc2)CC1	7.527
CC(C)c1nc(C2CCCN(C(=O)CCn3cncn3)C2)no1 (stereo unspecified)	22.78
NCC1CCN(c2cnn(CCCn3cccn3)c(=O)c2)CC1	8.992
COc1cc(S(=O)(=O)N2CCc3ccccc32)cc(C(=O)O)c1OC	14.16
CC1CCN(C(=O)c2sccc2-n2cnnn2)CC1	10.59
COCCN1C[C@@H]2[C@@H](OC)CCN(Cc3cccc(C)n3)[C@@H]2C1	14.5
N#Cc1ccccc1OCCN1CCCCC1C(=O)N1CCOCC1 (stereo unspecified)	5.722
Cc1n[nH]c(C2CN(C(=O)c3ccco3)CCO2)n1 (stereo unspecified)	11.97
CN1CCC(c2nccnc2Nc2cnccn2)CC1	14.17
COc1ncccc1NC(=O)C1CCOCC1	12.05
Cc1ccc(C2CN(c3nnc(C(F)F)s3)CCO2)c(C)c1 (stereo unspecified)	8.01
CCCn1ncc(C(=O)NC2CCN(CC3CCCO3)CC2)c1C (stereo unspecified)	6.597
CCOC(C)c1nccn1CC(=O)Nc1cc(C)on1 (stereo unspecified)	18.99
COc1cccc(CCC2CCCN(C(=O)c3ccc(OC)o3)C2)c1 (stereo unspecified)	15.27
CCN(CCn1cccn1)Cc1nc(-c2ccoc2)oc1C	10.86
CC(C)N(CCCNC(=O)C1CC1)S(C)(=O)=O	15.82
CC1CCc2nc(O)c(C(=O)NCc3cccc(F)c3)cc2C1 (stereo unspecified)	5.394
Cc1nn(C)c(C)c1-c1cncc(C2CCN(S(C)(=O)=O)CC2)n1	8.711
Cc1nc(-c2ccccc2)n(CC(=O)NC(C)(C)C)n1	17.48
CCn1cc(-c2cc(C(F)F)n3nc(CC(=O)O)nc3n2)cn1	5.135
CCCc1n[nH]c(C2CN(C(=O)CCCn3ccnc3)CCO2)n1 (stereo unspecified)	14.14
O=C(NC1CC1)N1CCn2c(Cn3cccn3)cnc2C1	23.81
COc1ccc(C(C)NC(=O)N2CCNC(=O)CC2)cc1F (stereo unspecified)	22.1
COC(=O)C(NC(=O)COC1CCCC1)c1cc(F)ccc1F (stereo unspecified)	7.692
CC(C)CN1CCCC1c1ccc(C(=O)Nc2cn(C)nn2)s1 (stereo unspecified)	8.289
Cc1ccc(CNC(=O)c2c[nH]nc2NC(=O)COCC2CC2)cc1	19.35
CSc1ccccc1CN1CCn2nc(CNC(=O)N(C)C)cc2C1	5.621
Cc1cn2c(CN(C)C(=O)c3cnc(N)c(Cl)c3)c(C)nc2s1	2.978
O=C(c1ccc(-c2cn[nH]c2)nc1)N1CCC(N2CCOCC2)CC1	13.19
CCc1nnsc1C(=O)N(C)Cc1nnc2n1CCC2	5.415
COc1ccc(C(C)NCc2c[nH]nc2C)cc1OC (stereo unspecified)	14.75
O=c1c2cccc(F)c2ncn1CCN1CCNCC1	5.108
N#CCCN1CCC(=Cc2ccccc2)CC1	16.49
O=S1(=O)CCC(CNc2cc(-c3ccccc3)nc3ccnn23)C1 (stereo unspecified)	11.04
Cc1nc(C)n(C2CCCN(C(=O)c3ncoc3C(C)C)C2)n1 (stereo unspecified)	11.35
COC[C@H]1CCCN1c1nccc(-c2cnn(-c3ccccc3C)c2)n1	21.15
Fc1cnc(N2CCO[C@H]3CN(CC4CCCCC4)C[C@H]32)nc1	3.553
Cc1ncc(-c2ccnc(N3CCN(C)CC3)n2)c(-c2cccnc2)n1	10.49
CC(C)c1ncc2c(n1)CN(Cc1ccc3c(c1)OCCO3)CC2	12.45
Cc1cccc(C)c1Nc1noc2c1CN(C(=O)c1c[nH]nc1C)CC2	11.05
Cc1nn(C)c2nc(N(C)CCN(C)C3CCCC3)sc12	5.013
CCc1nc(NC(=O)NCCc2cccc(C)n2)nn1C	16.32
CCc1cc(NCC(O)CN2CCCCC2)ncn1 (stereo unspecified)	17.35
Cc1ccc(-c2noc(C3CCN3C(=O)c3ccn(C)n3)n2)s1 (stereo unspecified)	15.7
Cc1cc(NC(=O)CN2CCc3c(nc(C(C)C)n3C)C2)n(C)n1	9.137
Cn1cc(CN2CCC3(CC2)NC(=O)CC3c2ccncc2)cn1 (stereo unspecified)	9.15
Cc1ccc(CNC(=O)CCN2CCN(c3ccccn3)CC2)n1C	-8.707
CCCS(=O)(=O)N1CCC2(CC1)CC(N1CCCC1)c1ccccc12 (stereo unspecified)	15.94
Cc1nnc(C(C)N(C)Cc2c(C)nn(-c3ccccc3C)c2C)o1 (stereo unspecified)	5.645
O=C(C1CC1)N1CCCC1C1CCN(Cc2ccccc2)CC1 (stereo unspecified)	13.38
Cc1ccc(NC(=O)CNC(C)Cc2ccsc2)cc1F (stereo unspecified)	14.2
O=C(O)c1ccc(CNC(=O)C2CCN(Cc3ccco3)CC2)s1	12.3
O=C(c1cc(Cl)c2c(c1)OCCCO2)N(CC1CCOC1)C1CC1 (stereo unspecified)	18.51
COCCN1C[C@@H](C(=O)O)[C@H](c2ccccc2C)C1	9.366
CC(C)c1noc(CN2CCCN(Cc3cccs3)CC2)n1	21.59
O=C(CN1CCOCC1)N1CCC2(CCCN(C3CCOCC3)C2=O)C1 (stereo unspecified)	17.79
CC(=O)N1CCN(CCNc2ncc(Br)cc2C)CC1	3.333
O=C(N1CCOCC1)[C@@]12CCO[C@@H]1CCN(C1CCCC1)C2	13.54
Cc1noc(CCCC(=O)N2CSCC2C(=O)NCC2CC2)n1 (stereo unspecified)	13.24
Cc1ccsc1CN(CCCC(F)(F)F)Cc1ccccn1	11.61
Cc1cc(NC(=O)Cn2cnc(-c3cccs3)cc2=O)no1	16.55
COc1cc(CNCC2CN(C3CC3)CCO2)cc(OC)c1 (stereo unspecified)	14.73
CN(C)c1nc(NCc2ccccc2Cn2cccn2)ncc1F	-4.835
CN(C)c1nccc(C2CCCN(C(=O)CO)C2)n1 (stereo unspecified)	15.48
CCS(=O)(=O)N1CCc2cc(C(=O)NC)c(N(C)C)nc2CC1	16.44
Cn1cc(C2CC3(CCN(C(=O)c4ccsc4)CC3)NC2=O)cn1 (stereo unspecified)	12.77
Cc1ccc(CN2CCN(c3cncc(N(C)C)n3)CC2=O)cc1C	21.48
CCN1Cc2ccccc2CC2(CCN(CC(=O)O)CC2)C1=O	1.093
CCN1CCN(CC(O)c2ccc(F)cc2)CC1 (stereo unspecified)	15.03
CC1CN(C(=O)c2nccnc2N)c2ccc(F)cc2O1 (stereo unspecified)	18.37
O=C(NCc1ccncc1)N1CCSCC1c1ccc(Cl)cc1 (stereo unspecified)	15.18
CCc1ccc(NC(=O)C2CCN(C(=O)COC)CC2)cc1	2.941
Cn1cc(Cl)cc1C(=O)N1CCC2(CCCN(CC3CC3)C2=O)C1 (stereo unspecified)	0
Cc1cc(C(=O)N2CCN(Cn3cc(Cl)cn3)CC2)c(C)o1	-0.7246
CCCc1nnc(N2CC[C@](C)(O)[C@H](C)C2)s1	9.48
O=C1C[C@H]2[C@@H](CCN2C(=O)Cc2ccccc2)N1Cc1cccnc1	4.482
CS(=O)(=O)CCSCc1ccc(Br)c(F)c1	17.01
O=C(CO)N1CCC(CCc2ccnc(Nc3cnccn3)c2)CC1	17.46

The first 10 entries again:

Result for Cc1ccc(C(=O)NCCS(C)(=O)=O)c(=O)[nH]1 was 12.38%.
Result for O=C1COC2(CCN(c3ccccn3)CC2)CN1 was 14.6%.
Result for CC(C)CNC(=O)N1CCC2(CCCO2)C1 (stereo unspecified) was 17.79%.
Result for O=C(c1ccco1)N1CCOCC2(C1)CN(c1cccnc1)C(=O)CO2 (stereo unspecified) was 5.205%.
Result for CCCc1ncc(C(=O)c2ccc(OC)cc2)n1C was 5.263%.
Result for COc1c(CNC2CCc3ccccc32)c(C)nn1C (stereo unspecified) was 15.85%.
Result for O=C([C@@H](O)Cc1ccccc1)N1CCCn2cncc2C1 was -3.069%.
Result for Cn1cc(CN2C[C@@H]3COC[C@]3(C(=O)N3CCCO3)C2)cn1 was 16.38%.
Result for Cc1nc(-n2nc(C3CC3)cc2NC(=O)C(C)C)[nH]c(=O)c1C was 12.54%.
Result for CC(NC(=O)CN(C)C(C)C)c1ccc(Oc2cccnc2)c(F)c1 (stereo unspecified) was 18.59%.

Measurements from “University of Dundee, Small-Polar-MMV Screening Library” (2021), ChEMBL document CHEMBL3988442.